According to the supplement of paper PMC10735217:
The list shows a part of the results. Single values are uncertain here, since repeats match poorly.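 Human kidney-derived cells stably carry a construct in which eight TEAD-binding elements drive luciferase, measured by luminescence in a drug-repurposing library screen. A hit is any compound whose signal exceeds the plate mean by more than five robust Z scores.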

System: HEK293A TEAD-LUC reporter
Assay: TEAD-luciferase reporter activity (YAP activation), robust Z score vs plate; higher = stronger YAP/TEAD activation
Settings: 24 h

Structure (SMILES) | TEAD-luciferase reporter activity (compound concentration: 200 nM) | TEAD-luciferase reporter activity (compound concentration: 2 uM) | TEAD-luciferase reporter activity (compound concentration: 10 uM)
COC(=O)Nc1nc2cc(Sc3ccc(NC(=O)[C@H](C)N)cc3)ccc2[nH]1 | inactive: 2.49 | active: 9.79 | inactive: 4.06
NC(=O)C1C(=O)C[C@@H]2C[C@@H]3Cc4cccc(O)c4C(=O)C3C(=O)[C@]2(O)C1=O (some centres undefined) [incyclinide] | inactive: 0.439 | inactive: 0.163 | inactive: -0.388
COc1cc(N(CCN(C)C)C(N)=O)cc(OC)c1OC | inactive: -1.32 | inactive: 0.969 | inactive: -1.3
NCCCCC(NC(=O)C1(C(=O)NCCc2ccccc2)CCCC1)B(O)O (centres undefined) | inactive: 0.971 | inactive: -1.54 | inactive: 3.79
Clc1ccc2c(c1)NC(N1CCNCC1)=c1ccccc1=N2 | inactive: -2.36 | inactive: 3.19 | inactive: 0.0944
CC(C)=CCN1Cc2cccc3[nH]c(=S)n(c23)C[C@@H]1C | inactive: -0.796 | inactive: -1.24 | inactive: 2.19
CC(C)CCC[C@@H](C)[C@H]1CC[C@H]2[C@@H]3CCC4=C/C(=N\O)CC[C@]4(C)[C@H]3CC[C@]12C [olesoxime] | inactive: -0.507 | inactive: -1.24 | inactive: 1.34
COc1ccc2sc(C(C)(C)C)nc2c1NC(=S)SCCC(=O)O | inactive: 2.1 | inactive: -1.62 | inactive: 0.0607
c1ccc(N2CCN(CCCOc3ccc4c(c3)OCO4)CC2)cc1 | inactive: -0.243 | inactive: -2.34 | inactive: 0.112
CC[C@H](CC[C@@H](C)[C@H]1CCC2[C@@H]3C[C@@H](O)[C@@]4(O)C[C@@H](O)CC[C@]4(C)C3CC[C@@]21C)C(C)C (some centres undefined) [Lebanus Cedra] | inactive: -0.195 | inactive: 3.37 | inactive: 0.0814
O=C(O)c1cccc(-c2nc(N3CCC(OCc4c(-c5c(Cl)cccc5Cl)noc4C4CC4)CC3)no2)c1 [analog of LJN-452] | inactive: -0.0487 | inactive: -0.524 | inactive: 1.26
O=C(O)Cn1nnnc1-c1ccsc1 | inactive: 1.58 | inactive: -0.835 | inactive: 1.37
CN[C@@H]1[C@H](O[C@H]2[C@H](O[C@H]3[C@H](O)[C@@H](O)[C@H](NC(=N)N)[C@@H](O)[C@@H]3NC(=N)N)O[C@@H](C)[C@]2(O)C=O)O[C@@H](CO)[C@H](O)[C@H]1O [Streptomycin] | inactive: -0.0321 | – | inactive: 1.48
CCCNc1nc(C)nc(Nc2c(Cl)cc(C)c3nccnc23)c1C | inactive: 2.34 | inactive: 0.00652 | inactive: -0.853
COCc1cccc(C[C@H](O)/C=C/[C@H]2[C@H](O)CC(=O)[C@@H]2CCSCCCC(=O)OC)c1 | inactive: -1.62 | inactive: 1.05 | inactive: -1.51
CN1CC[C@@H](c2c(O)cc(O)c3c(=O)cc(-c4ccccc4Cl)oc23)[C@@H]1CO [riviciclib] | inactive: -2.64 | inactive: -2.97 | inactive: 0.428
CC(=O)N1CCN(c2ccc(OCC3CO[C@](Cn4ccnc4)(c4ccc(Cl)cc4Cl)O3)cc2)CC1 (some centres undefined) [Ketoconazole] | inactive: -0.505 | inactive: -1.04 | inactive: -0.332
O=C(c1cc(S(=O)(=O)Nc2ccccc2F)c(F)cc1Cl)N1CCN2CCC[C@@H]2C1 | inactive: -0.298 | inactive: -0.397 | inactive: -1.36
Oc1ccccc1 | inactive: -0.252 | inactive: -0.655 | inactive: -0.802
Cc1nc(C)c(C(=O)Nc2ccc(F)c(-c3nc4ncc(-c5ccccn5)cn4n3)c2)o1 | inactive: -0.656 | inactive: 0.279 | inactive: -1.39
COc1cc2c(NCCCCCO[N+](=O)[O-])ncnc2c(OC)c1OC | inactive: 0.545 | inactive: 0.573 | inactive: 3.65
CC(=O)NCCNC(=N)NN | inactive: -1.07 | inactive: -0.44 | inactive: 0.925
CN[C@H]1C(=O)N[C@@H]2Cc3ccc(cc3)Oc3cc4cc(c3O[C@@H]3O[C@H](C(=O)O)[C@@H](O)[C@H](O)[C@H]3NC(=O)CCCCCCCCC(C)C)Oc3ccc(cc3Cl)[C@@H](O)[C@@H]3NC(=O)[C@H](NC(=O)[C@@H]4NC(=O)[C@@H](NC2=O)c2cc(cc(O)c2Cl)Oc2cc1ccc2O)c1ccc(O)c(c1)-c1c(O[C@H]2O[C@H](CO)[C@@H](O)[C@H](O)[C@@H]2O)cc(O)cc1[C@@H](C(=O)NCCCN(C)C)NC3=O [Dalbavancin] | inactive: -0.745 | inactive: -0.935 | inactive: 0.824
CC12CCC(C(S(=O)(=O)O)C1=O)C2(C)C (centres undefined) | inactive: 0.787 | inactive: -0.465 | inactive: -0.512
COc1ccc2c(c1)CC(CO)O2 (centres undefined) | inactive: -1.97 | inactive: 1.65 | inactive: -0.383

2 of the compounds above, field by field:
COC(=O)Nc1nc2cc(Sc3ccc(NC(=O)[C@H](C)N)cc3)ccc2[nH]1
  TEAD-luciferase reporter activity (compound concentration: 200 nM): inactive: 2.49
  TEAD-luciferase reporter activity (compound concentration: 2 uM): active: 9.79
  TEAD-luciferase reporter activity (compound concentration: 10 uM): inactive: 4.06
NC(=O)C1C(=O)C[C@@H]2C[C@@H]3Cc4cccc(O)c4C(=O)C3C(=O)[C@]2(O)C1=O (some centres undefined) [incyclinide]
  TEAD-luciferase reporter activity (compound concentration: 200 nM): inactive: 0.439
  TEAD-luciferase reporter activity (compound concentration: 2 uM): inactive: 0.163
  TEAD-luciferase reporter activity (compound concentration: 10 uM): inactive: -0.388
